These are yes or no findings as the source states them, for the method shown. In cells and extracts the contact can be indirect. Some entries that bind do so weakly or less than the wild type.
The substances below were run against USP7 (mouse (endogenous in E14TG2a ES cells)) (UniProt Q6A4J8) (assay: co-IP; endogenous USP7 immunoprecipitated from 2 mg mESC lysate (50 mM Tris-HCl pH 7.5, 150 mM NaCl, 0.5 mM EDTA, 1% Triton X100) with anti-USP7 antibody overnight at 4°C, Protein A/G magnetic beads, washes with 250 mM NaCl; Western blot; Usp7-KO ES cells as negative control).

Amino acid sequences for entries named in this document (tags omitted).
UniProt Q6A4J8: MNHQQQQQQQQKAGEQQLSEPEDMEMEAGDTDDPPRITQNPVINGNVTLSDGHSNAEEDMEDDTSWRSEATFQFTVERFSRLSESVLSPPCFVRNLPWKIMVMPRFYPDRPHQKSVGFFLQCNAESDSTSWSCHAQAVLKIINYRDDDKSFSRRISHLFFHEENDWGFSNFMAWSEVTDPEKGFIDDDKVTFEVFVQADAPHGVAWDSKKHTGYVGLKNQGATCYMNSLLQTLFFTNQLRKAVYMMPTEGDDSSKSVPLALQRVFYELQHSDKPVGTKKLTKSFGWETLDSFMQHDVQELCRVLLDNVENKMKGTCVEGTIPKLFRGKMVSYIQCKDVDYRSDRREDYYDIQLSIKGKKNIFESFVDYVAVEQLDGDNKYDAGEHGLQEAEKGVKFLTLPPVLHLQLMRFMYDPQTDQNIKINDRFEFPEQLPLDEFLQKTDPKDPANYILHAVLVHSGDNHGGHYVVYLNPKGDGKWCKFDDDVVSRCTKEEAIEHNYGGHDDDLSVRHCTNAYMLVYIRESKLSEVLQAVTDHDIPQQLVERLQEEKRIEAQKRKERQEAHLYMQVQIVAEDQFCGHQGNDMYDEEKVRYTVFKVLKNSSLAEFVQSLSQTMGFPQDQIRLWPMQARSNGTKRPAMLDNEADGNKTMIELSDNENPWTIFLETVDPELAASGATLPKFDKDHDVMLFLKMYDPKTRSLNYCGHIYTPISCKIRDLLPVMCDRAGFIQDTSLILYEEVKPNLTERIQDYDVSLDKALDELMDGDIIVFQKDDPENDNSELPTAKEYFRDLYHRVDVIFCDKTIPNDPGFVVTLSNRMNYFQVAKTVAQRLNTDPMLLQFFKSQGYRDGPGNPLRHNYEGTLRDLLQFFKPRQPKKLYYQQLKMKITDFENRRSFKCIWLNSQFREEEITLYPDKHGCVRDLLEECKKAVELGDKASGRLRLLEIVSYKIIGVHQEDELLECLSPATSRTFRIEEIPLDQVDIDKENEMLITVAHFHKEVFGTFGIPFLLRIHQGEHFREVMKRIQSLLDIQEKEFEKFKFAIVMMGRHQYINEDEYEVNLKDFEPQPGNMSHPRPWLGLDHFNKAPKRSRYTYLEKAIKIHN
UniProt P59178: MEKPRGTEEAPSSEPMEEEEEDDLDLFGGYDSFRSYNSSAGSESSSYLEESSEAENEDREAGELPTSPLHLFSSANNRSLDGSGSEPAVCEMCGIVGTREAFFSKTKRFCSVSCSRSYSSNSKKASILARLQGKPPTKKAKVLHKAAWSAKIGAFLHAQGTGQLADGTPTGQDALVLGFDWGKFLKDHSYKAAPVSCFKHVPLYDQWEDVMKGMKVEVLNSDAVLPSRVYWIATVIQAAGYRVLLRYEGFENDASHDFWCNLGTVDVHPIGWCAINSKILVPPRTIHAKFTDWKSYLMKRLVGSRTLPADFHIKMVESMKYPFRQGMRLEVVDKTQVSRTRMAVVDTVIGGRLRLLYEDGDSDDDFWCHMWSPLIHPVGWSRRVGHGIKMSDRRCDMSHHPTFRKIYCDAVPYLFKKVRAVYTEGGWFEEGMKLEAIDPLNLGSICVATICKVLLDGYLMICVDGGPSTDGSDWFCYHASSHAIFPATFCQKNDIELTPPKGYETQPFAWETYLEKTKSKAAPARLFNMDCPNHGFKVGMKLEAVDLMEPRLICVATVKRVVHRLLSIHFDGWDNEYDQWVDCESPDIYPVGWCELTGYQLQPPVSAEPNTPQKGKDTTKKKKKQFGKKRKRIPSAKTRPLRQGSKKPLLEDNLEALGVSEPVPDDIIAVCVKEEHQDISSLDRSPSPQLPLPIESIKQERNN
UniProt A2AWL7: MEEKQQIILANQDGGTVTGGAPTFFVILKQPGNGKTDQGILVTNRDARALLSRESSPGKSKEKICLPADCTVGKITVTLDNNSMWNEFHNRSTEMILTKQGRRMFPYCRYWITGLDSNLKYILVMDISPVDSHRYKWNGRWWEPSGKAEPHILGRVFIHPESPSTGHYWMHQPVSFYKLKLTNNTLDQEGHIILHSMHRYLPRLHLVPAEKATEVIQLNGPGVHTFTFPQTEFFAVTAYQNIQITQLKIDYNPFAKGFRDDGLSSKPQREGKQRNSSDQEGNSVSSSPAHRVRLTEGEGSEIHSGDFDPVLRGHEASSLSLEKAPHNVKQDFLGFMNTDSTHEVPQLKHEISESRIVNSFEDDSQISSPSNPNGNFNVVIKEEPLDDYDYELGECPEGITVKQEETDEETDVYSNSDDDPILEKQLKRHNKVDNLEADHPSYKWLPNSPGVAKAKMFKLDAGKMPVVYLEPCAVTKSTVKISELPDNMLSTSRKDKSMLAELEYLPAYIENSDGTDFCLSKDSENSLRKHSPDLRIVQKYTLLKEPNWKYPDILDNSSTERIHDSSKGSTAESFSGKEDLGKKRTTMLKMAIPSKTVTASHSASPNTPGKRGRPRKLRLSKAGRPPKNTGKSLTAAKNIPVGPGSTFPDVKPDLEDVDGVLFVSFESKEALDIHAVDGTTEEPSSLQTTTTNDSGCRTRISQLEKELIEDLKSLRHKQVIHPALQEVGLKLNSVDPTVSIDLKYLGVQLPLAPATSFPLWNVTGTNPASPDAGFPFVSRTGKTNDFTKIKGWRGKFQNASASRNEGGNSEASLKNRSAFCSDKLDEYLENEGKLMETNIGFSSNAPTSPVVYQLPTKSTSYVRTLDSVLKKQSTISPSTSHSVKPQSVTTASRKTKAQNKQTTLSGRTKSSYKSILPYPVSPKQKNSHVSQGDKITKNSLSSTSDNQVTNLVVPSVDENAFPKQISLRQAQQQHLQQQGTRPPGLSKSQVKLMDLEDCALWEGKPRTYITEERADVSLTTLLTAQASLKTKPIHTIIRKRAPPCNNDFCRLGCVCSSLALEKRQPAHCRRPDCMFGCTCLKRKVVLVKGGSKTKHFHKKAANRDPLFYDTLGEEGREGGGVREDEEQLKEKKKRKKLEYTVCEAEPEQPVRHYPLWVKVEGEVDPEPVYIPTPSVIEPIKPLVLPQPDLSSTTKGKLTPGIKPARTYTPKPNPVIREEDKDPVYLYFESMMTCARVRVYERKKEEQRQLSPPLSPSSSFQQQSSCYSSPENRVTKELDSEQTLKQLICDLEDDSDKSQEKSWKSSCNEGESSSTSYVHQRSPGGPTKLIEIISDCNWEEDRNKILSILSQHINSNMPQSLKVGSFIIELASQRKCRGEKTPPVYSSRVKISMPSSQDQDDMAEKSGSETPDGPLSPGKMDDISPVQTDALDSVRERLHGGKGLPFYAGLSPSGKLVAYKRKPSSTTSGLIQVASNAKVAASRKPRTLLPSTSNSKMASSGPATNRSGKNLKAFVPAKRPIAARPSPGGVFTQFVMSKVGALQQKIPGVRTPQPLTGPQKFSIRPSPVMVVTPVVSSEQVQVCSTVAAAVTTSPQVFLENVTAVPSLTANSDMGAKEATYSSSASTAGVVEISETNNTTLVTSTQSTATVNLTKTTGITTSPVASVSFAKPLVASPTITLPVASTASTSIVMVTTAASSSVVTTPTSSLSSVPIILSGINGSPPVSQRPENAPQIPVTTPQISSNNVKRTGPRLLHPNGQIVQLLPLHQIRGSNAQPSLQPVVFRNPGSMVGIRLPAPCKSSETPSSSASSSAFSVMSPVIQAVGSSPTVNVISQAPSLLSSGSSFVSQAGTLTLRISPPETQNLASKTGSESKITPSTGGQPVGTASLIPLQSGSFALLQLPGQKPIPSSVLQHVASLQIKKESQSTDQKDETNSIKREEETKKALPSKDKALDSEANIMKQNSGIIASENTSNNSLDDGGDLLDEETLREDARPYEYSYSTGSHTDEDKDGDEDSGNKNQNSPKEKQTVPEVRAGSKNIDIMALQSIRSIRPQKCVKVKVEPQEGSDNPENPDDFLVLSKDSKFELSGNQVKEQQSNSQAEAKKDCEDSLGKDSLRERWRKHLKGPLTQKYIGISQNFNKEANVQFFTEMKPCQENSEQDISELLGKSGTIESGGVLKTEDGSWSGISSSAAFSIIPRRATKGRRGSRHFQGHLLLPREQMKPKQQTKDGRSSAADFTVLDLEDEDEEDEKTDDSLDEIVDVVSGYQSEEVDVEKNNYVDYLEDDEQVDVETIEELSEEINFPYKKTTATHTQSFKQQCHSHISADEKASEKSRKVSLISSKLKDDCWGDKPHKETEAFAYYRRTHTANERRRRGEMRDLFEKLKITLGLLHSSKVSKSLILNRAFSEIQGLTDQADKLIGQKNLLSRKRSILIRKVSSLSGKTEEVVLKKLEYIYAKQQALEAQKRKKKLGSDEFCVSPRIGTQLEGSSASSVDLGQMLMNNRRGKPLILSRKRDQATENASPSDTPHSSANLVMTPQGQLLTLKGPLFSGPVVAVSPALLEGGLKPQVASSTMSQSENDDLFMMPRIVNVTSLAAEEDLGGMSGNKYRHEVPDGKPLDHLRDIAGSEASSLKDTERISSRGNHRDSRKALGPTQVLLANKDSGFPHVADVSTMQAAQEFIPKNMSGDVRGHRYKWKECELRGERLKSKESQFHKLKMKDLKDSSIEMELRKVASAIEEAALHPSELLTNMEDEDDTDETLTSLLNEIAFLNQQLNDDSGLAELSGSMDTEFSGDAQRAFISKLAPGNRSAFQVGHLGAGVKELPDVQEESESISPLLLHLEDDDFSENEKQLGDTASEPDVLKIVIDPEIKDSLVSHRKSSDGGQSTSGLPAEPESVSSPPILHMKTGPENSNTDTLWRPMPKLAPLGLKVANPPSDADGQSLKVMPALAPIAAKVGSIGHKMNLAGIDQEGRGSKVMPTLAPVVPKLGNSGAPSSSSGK
UniProt Q9CQJ4: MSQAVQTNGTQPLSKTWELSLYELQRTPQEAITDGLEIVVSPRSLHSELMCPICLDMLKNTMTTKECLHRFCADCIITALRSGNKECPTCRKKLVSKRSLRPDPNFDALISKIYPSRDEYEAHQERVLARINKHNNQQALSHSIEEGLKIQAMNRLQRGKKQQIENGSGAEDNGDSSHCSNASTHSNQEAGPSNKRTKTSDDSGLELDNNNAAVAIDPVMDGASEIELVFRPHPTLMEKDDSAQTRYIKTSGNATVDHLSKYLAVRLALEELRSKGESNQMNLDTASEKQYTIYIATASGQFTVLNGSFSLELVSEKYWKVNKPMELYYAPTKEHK

| binding | Substance |
| --- | --- |
| binds | L3MBTL2 (from UniProt P59178 1-703) |
| binds | MGA (from UniProt A2AWL7 1-3003) |
| binds | RING1B (from UniProt Q9CQJ4 1-336) |

From article PMC10123117
